These are yes or no findings as the source states them, for the method shown. In cells and extracts the contact can be indirect. Some binding calls cover weakened binding; strength is not graded here. Tags and fused reporters may be left off the sequences shown.

Binding data for one molecule are collected here from PMC11094094.

For the test, the target named is T1, Evi5-3xFlag expressed in S2 cells (pAFW-Evi5-3XFlag) (Drosophila) (UniProt Q9VYY9).
T1 sequence: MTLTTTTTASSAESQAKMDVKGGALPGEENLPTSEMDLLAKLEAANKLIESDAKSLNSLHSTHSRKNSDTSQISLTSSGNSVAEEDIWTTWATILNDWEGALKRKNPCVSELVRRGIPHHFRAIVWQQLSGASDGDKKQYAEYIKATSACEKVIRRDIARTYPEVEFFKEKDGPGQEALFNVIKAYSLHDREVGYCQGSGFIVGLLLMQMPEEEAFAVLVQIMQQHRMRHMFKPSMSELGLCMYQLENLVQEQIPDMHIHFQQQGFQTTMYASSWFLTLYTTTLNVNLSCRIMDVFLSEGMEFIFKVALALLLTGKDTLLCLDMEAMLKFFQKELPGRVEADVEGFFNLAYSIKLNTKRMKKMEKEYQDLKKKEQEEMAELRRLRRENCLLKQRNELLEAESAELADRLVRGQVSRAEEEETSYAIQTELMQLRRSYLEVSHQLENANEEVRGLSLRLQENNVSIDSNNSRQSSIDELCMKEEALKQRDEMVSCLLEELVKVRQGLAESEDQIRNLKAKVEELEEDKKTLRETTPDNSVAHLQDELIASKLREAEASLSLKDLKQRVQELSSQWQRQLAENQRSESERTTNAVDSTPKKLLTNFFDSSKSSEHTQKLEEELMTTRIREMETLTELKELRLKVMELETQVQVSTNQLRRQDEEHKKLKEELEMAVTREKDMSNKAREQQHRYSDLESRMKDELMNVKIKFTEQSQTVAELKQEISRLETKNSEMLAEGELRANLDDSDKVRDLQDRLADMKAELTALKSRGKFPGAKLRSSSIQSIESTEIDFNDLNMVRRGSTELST
The test can be described thus: co-IP; S2 cells co-transfected with plasmids; Flag-tagged Evi5 as bait; blots with anti-Flag and anti-Myc.

B1: Fer1HCH-3xMyc expressed in S2 cells (protein, UniProt Q7KRU8 20-205)
chain: DFKCSLAVPEITKDWVDMKDACIKGMRNQIQEEINASYQYLAMGAYFSRDTVNRPGFAEHFFKAAKEEREHGSKLVEYLSMRGQLTEGVSDLINVPTVAKQEWTDGAAALSDALDLEIKVTKSIRKLIQTCENKPYNHYHLVDYLTGVYLEEQLHGQRELAGKLTTLKKMMDTNGELGEFLFDKTL
For B1, the binding result is on record as “binds”.
